Laboratory results: PubChem BioAssay AID1259300 (Sanger Institute, 2017)

- Aim: 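Which knock-downs harm HCT15 alone or synergise with the drugs BYL719, cetuximab or trametinib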 (primary screen)
- Cells: HCT15 colorectal cancer cells
- Reagent: siRNA pool against human genes
- Treatment: anchor drug or DMSO vehicle added 24 h after seeding: BYL719 1 µM, cetuximab 5 µg/ml, trametinib 10 nM; drug doses chosen to barely affect viability alone
- Read-out: 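Cell viability after knock-down, as fraction of non-targeting pool wells averaged over replicates, plus robust z-score for knock-down alone; synergy score per drug (BYL719 1 µM, cetuximab 5 µg/ml, trametinib 10 nM)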
- Scale: viability z-score, siRNA alone: higher = more viable cells after knock-down; viability vs non-targeting, siRNA alone: higher = more viable cells
- Hit rule: 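a knock-down without drug that drives the robust viability z-score under -3 is active, i.e. essential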
- Meaning of the calls: active = essential: knock-down alone lowers viability (z below -3); inactive = no strong viability loss with knock-down alone
In all, the deposit lists 794 reagents; shown is a random part of them. Over the whole deposit, 18 (2.3%) are marked active. 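Calls rest on knock-down alone, not drug synergy; depositor treated synergy scores above 0.15 as synergistic; drug doses alone had little viability effect.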 Viability is capped at 1. Further read-outs or replicates are left out here. Not given: the amount of reagent, the time to read-out.

Silencing of ALDH18A1 (aldehyde dehydrogenase 18 family member A1) [SID152152799] resulted in: viability z-score, siRNA alone 0.625; viability vs non-targeting, siRNA alone 1; inactive.
Against BCOR (BCL6 corepressor) [SID135620845], the values are viability z-score, siRNA alone -0.117; viability vs non-targeting, siRNA alone 0.946; inactive.
PANK2 (pantothenate kinase 2) [SID152147442] showed viability z-score, siRNA alone 0.625; viability vs non-targeting, siRNA alone 1; inactive.
After knock-down of VRK3 (VRK serine/threonine kinase 3) [SID135620981], the screen gave viability z-score, siRNA alone 0.625; viability vs non-targeting, siRNA alone 1; inactive.
For CIT (citron rho-interacting serine/threonine kinase) [SID56478810], the entry reads viability z-score, siRNA alone 0.163; viability vs non-targeting, siRNA alone 0.966; inactive.
With knock-down of CSNK1A1 (casein kinase 1 alpha 1) [SID152148946], the record shows viability z-score, siRNA alone 0.625; viability vs non-targeting, siRNA alone 1; inactive.
With knock-down of CAMK2A (calcium/calmodulin dependent protein kinase II alpha) [SID56478931], the record shows viability z-score, siRNA alone -0.168; viability vs non-targeting, siRNA alone 0.942; inactive.
Depletion of FASTK (Fas activated serine/threonine kinase) [SID56479004] resulted in: viability z-score, siRNA alone -0.834; viability vs non-targeting, siRNA alone 0.894; inactive.
Against MAPK3 (mitogen-activated protein kinase 3) [SID135620708], the entry reads viability z-score, siRNA alone -0.148; viability vs non-targeting, siRNA alone 0.944; inactive.
Silencing of PDGFRA (platelet derived growth factor receptor alpha) [SID135620628] came out at: viability z-score, siRNA alone 0.625; viability vs non-targeting, siRNA alone 1; inactive.

2 entries from above, ordered by “viability vs non-targeting, siRNA alone”, highest first.
PANK2 (pantothenate kinase 2) [SID152147442] | viability z-score, siRNA alone: 0.625; viability vs non-targeting, siRNA alone: 1; Outcome: inactive
BCOR (BCL6 corepressor) [SID135620845] | viability z-score, siRNA alone: -0.117; viability vs non-targeting, siRNA alone: 0.946; Outcome: inactive

Additional results:
For STK11 (serine/threonine kinase 11) [SID152153881], the values are viability z-score, siRNA alone -0.749; viability vs non-targeting, siRNA alone 0.9; inactive.
With knock-down of MAP3K20 (mitogen-activated protein kinase kinase kinase 20) [SID152152597] the results were viability z-score, siRNA alone 0.625; viability vs non-targeting, siRNA alone 1; inactive.
After knock-down of MAP4K1 (mitogen-activated protein kinase kinase kinase kinase 1) [SID56478699], the screen gave viability z-score, siRNA alone -0.686; viability vs non-targeting, siRNA alone 0.905; inactive.
Knock-down of EFNA3 (ephrin A3) [SID135623696] resulted in: viability z-score, siRNA alone -0.169; viability vs non-targeting, siRNA alone 0.942; inactive.
After knock-down of FYN (FYN proto-oncogene, Src family tyrosine kinase) [SID135620621], the screen gave viability z-score, siRNA alone -0.0452; viability vs non-targeting, siRNA alone 0.951; inactive.
Knock-down of CAMKK2 (calcium/calmodulin dependent protein kinase kinase 2) [SID135620895] gave: viability z-score, siRNA alone 0.625; viability vs non-targeting, siRNA alone 1; inactive.
After knock-down of RPS6KA2 (ribosomal protein S6 kinase A2) [SID135620862], the screen gave viability z-score, siRNA alone -3.11; viability vs non-targeting, siRNA alone 0.729; active.
Depletion of BUB1 (BUB1 mitotic checkpoint serine/threonine kinase) [SID152152440] gave: viability z-score, siRNA alone 0.625; viability vs non-targeting, siRNA alone 1; inactive.
After knock-down of CDK16 (cyclin dependent kinase 16) [SID152150805], the screen gave viability z-score, siRNA alone -0.195; viability vs non-targeting, siRNA alone 0.94; inactive.
